Where a name gives a salt, the structure may show the parent alone. Some of these results come from one statement about several compounds together. Some ranges recur; such a range may be that of the whole group of compounds.
Test: In vitro liver microsomal stability assay
Format: in vitro ADME
Details: 1 mg per mL liver microsome protein, NADPH-generating system, 5 microgram per mL test compound, 37° C., 0-60 minutes, LC/MS/MS

SMILES	increase in degradation half-life as compared to the non-isotopically enriched drug (venlafaxine)
[2H]C([2H])([2H])Oc1ccc(C(CN(C)C)C2(O)CCCCC2)cc1 (racemic) [(±)-d3-venlafaxine, d3-1-[2-Dimethylamino-1-(4-methoxyphenyl)-ethyl]-cyclohexanol]	50-300%
[2H]C([2H])N(CC(c1ccc(OC([2H])([2H])[2H])cc1)C1(O)CCCCC1)C([2H])([2H])[2H] (racemic) [(±)-d8-venlafaxine, d8-1-[2-Dimethylamino-1-(4-methoxyphenyl)-ethyl]-cyclohexanol]	50-300%
[2H]C([2H])([2H])Oc1ccc(C(CN(C([2H])([2H])[2H])C([2H])([2H])[2H])C2(O)CCCCC2)cc1 (racemic) [(±)-d9-venlafaxine, d9-1-[2-Dimethylamino-1-(4-methoxyphenyl)-ethyl]-cyclohexanol]	50-300%
[2H]C([2H])([2H])Oc1ccc([C@H](CN(C)C)C2(O)CCCCC2)cc1 [(R)-d3-venlafaxine, (R)-d3-1-[2-Dimethylamino-1-(4-methoxyphenyl)-ethyl]-cyclohexanol hydrochloride]	50-300%
[2H]C([2H])([2H])Oc1ccc([C@H](CN(C([2H])([2H])[2H])C([2H])([2H])[2H])C2(O)CCCCC2)cc1 [(R)-d9-venlafaxine, (R)-d9-1-[2-Dimethylamino-1-(4-methoxyphenyl)-ethyl]-cyclohexanol Hydrochloride Salt]	50-300%
[2H]C([2H])([2H])Oc1ccc([C@@H](CN(C)C)C2(O)CCCCC2)cc1 [(S)-d3-venlafaxine, (S)-d3-1-[2-Dimethylamino-1-(4-methoxyphenyl)-ethyl]-cyclohexanol hydrochloride]	50-300%
[2H]C([2H])([2H])Oc1ccc([C@@H](CN(C([2H])([2H])[2H])C([2H])([2H])[2H])C2(O)CCCCC2)cc1 [(S)-d9-venlafaxine, (S)-d9-1-[2-Dimethylamino-1-(4-methoxyphenyl)-ethyl]-cyclohexanol Hydrochloride Salt]	50-300%
[2H]C([2H])([2H])Oc1ccc(C([2H])(CN(C)C)C2(O)C([2H])([2H])C([2H])([2H])C([2H])([2H])C([2H])([2H])C2([2H])[2H])cc1 (stereo not drawn) [d14-venlafaxine, d14-1-[2-Dimethylamino-1-(4-methoxyphenyl)-ethyl]-cyclohexanol]	50-300%
[2H]C([2H])([2H])Oc1ccc(C([2H])(CN(C([2H])([2H])[2H])C([2H])([2H])[2H])C2(O)C([2H])([2H])C([2H])([2H])C([2H])([2H])C([2H])([2H])C2([2H])[2H])cc1 (stereo not drawn) [d20-venlafaxine, d20-1-[2-Dimethylamino-1-(4-methoxyphenyl)-ethyl]-cyclohexanol]	50-300%
